# Data reported in the supplement of paper PMC6411743.
# Sequences of proteins named here, by UniProt entry; tags and fusion partners are left off. A change or cut given only in a name is not applied to a line headed by its entry.
# UniProt Q969X5: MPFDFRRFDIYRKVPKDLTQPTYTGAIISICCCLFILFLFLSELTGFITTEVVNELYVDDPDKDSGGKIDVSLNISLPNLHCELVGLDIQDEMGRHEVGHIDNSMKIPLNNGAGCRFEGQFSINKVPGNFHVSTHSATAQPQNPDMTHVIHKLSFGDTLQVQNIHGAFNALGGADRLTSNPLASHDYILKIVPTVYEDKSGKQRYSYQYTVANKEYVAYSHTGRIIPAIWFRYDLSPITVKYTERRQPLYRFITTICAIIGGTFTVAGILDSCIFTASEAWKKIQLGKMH
# UniProt Q96NB2: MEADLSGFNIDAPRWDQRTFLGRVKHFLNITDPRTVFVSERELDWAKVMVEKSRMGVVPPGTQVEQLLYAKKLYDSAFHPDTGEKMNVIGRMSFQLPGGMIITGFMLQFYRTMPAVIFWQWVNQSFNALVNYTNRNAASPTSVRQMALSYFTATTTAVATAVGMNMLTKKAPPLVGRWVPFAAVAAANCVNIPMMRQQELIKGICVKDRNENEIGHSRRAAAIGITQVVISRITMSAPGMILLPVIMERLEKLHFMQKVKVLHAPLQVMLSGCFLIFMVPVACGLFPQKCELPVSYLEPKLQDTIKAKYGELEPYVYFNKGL
# UniProt Q96BZ8: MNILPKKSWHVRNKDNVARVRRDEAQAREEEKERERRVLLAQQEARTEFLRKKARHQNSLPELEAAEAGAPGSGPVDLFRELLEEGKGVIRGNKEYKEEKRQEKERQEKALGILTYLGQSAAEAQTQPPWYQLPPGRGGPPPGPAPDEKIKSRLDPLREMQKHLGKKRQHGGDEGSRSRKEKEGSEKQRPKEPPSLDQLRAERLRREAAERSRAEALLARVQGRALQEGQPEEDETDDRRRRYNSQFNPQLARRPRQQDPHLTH
# UniProt Q96EP0: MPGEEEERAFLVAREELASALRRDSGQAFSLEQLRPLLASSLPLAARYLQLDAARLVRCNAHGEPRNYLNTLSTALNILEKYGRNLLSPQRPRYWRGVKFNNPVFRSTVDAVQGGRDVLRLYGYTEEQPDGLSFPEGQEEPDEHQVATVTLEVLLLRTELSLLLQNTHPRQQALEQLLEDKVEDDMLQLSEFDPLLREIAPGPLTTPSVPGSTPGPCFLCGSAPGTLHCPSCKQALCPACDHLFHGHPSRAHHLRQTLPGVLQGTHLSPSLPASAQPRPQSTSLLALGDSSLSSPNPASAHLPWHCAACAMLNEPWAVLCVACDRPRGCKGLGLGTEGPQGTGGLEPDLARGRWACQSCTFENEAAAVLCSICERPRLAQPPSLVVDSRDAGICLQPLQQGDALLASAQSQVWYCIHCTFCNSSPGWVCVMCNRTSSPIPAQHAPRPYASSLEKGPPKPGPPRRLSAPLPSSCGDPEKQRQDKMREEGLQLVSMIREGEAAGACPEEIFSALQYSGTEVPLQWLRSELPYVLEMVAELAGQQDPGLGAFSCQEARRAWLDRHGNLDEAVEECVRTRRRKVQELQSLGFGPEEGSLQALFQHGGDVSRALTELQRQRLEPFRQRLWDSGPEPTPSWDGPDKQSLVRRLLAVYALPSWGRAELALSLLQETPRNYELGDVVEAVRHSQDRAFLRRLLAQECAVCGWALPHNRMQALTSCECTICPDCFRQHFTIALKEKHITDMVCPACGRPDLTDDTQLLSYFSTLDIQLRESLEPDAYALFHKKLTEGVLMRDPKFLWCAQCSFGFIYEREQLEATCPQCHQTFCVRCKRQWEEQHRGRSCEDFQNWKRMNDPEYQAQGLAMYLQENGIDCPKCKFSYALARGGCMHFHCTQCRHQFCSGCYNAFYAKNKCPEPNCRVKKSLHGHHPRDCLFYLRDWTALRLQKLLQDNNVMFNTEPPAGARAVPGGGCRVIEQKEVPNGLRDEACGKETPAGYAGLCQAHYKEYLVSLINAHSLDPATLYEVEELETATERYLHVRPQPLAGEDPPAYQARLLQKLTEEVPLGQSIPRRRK
# UniProt Q96AJ9: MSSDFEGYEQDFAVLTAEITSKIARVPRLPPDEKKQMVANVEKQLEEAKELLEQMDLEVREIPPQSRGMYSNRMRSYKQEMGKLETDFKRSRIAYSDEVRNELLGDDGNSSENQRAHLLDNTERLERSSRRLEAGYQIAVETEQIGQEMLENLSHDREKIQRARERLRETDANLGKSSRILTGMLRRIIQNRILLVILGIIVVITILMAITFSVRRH
# UniProt Q96DT6: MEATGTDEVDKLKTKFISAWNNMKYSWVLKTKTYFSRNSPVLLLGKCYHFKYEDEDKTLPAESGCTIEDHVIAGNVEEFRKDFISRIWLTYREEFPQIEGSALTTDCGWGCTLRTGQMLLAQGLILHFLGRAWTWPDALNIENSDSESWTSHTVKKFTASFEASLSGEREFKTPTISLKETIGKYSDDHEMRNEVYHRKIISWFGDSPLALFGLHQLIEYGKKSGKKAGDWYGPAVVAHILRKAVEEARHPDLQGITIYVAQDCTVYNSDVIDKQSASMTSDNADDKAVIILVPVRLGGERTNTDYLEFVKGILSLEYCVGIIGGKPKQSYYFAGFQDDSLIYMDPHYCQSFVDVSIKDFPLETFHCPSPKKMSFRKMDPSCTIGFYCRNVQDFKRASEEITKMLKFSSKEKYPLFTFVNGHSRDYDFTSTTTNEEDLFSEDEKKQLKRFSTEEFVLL
# UniProt Q969Z0: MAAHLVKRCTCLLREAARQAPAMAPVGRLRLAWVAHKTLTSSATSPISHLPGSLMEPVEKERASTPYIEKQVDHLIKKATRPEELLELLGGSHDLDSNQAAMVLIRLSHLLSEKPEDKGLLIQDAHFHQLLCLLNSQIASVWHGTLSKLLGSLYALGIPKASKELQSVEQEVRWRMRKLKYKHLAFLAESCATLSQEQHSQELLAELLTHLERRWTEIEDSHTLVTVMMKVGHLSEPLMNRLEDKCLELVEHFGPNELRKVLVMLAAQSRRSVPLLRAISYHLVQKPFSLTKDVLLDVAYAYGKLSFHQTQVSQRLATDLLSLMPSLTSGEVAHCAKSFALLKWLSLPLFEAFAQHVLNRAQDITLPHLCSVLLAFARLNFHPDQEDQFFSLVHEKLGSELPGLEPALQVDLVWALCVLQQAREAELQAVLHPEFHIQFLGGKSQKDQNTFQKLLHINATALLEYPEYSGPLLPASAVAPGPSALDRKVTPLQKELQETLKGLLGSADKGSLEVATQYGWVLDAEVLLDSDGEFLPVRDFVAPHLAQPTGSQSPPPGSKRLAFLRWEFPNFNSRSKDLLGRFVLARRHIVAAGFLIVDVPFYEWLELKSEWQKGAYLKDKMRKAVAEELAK
# UniProt Q96DC7: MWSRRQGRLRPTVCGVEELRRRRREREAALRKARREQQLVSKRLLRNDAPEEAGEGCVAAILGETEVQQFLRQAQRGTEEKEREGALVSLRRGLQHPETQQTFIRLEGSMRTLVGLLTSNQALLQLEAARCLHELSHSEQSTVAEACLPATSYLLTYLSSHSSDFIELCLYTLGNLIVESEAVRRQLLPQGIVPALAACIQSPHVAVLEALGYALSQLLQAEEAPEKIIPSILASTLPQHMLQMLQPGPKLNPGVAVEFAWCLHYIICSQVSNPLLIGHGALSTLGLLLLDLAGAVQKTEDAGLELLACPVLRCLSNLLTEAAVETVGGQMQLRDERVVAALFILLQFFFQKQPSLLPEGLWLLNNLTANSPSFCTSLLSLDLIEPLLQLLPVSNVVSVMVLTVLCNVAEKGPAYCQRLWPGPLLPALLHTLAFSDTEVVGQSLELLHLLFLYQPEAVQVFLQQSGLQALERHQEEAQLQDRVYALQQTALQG
# UniProt Q96DI7: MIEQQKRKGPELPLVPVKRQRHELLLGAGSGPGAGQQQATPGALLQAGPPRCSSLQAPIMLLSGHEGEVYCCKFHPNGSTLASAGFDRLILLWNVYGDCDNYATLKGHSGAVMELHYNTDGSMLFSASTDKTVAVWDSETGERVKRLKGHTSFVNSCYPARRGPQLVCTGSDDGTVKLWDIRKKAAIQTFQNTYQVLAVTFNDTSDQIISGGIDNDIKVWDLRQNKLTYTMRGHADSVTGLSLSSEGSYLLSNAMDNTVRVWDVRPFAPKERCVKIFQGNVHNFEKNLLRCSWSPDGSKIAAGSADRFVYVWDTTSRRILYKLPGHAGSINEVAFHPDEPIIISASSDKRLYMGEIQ
# UniProt Q96D53: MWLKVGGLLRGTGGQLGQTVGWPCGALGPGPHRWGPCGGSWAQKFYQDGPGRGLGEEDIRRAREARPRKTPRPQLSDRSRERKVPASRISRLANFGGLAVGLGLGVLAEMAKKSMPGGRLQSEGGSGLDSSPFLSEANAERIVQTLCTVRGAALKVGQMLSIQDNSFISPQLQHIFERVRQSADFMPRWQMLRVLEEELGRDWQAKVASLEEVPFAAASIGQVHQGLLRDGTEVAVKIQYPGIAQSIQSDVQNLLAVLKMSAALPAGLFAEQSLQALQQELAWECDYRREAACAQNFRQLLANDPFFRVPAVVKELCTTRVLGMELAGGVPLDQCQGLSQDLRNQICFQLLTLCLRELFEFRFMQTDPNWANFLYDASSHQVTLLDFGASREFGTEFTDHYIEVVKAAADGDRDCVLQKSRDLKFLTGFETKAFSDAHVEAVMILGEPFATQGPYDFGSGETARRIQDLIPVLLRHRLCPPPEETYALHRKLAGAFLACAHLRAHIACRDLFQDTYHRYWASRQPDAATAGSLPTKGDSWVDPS
# UniProt Q96DF8: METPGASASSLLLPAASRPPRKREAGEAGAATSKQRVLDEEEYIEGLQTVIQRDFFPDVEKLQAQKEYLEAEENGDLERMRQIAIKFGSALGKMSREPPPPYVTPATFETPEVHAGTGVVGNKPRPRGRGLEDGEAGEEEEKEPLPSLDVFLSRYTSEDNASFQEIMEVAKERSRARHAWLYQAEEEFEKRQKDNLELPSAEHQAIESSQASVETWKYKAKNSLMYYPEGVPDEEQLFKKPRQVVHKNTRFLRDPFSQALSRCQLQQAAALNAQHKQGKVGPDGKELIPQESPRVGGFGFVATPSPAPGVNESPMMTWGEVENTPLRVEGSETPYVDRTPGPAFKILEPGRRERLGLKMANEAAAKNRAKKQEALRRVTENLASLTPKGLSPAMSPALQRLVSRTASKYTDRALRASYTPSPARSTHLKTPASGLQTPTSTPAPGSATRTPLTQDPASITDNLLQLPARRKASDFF
# UniProt Q96GX2: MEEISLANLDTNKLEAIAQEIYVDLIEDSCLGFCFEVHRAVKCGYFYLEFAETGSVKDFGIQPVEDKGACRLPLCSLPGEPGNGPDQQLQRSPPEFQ
# UniProt Q969F1: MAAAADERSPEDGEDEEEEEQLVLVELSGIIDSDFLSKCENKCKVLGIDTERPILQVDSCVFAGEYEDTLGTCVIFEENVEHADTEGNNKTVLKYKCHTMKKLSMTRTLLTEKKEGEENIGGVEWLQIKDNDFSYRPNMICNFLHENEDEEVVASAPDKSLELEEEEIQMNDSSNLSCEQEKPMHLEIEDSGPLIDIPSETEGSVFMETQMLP
# UniProt Q96AE7: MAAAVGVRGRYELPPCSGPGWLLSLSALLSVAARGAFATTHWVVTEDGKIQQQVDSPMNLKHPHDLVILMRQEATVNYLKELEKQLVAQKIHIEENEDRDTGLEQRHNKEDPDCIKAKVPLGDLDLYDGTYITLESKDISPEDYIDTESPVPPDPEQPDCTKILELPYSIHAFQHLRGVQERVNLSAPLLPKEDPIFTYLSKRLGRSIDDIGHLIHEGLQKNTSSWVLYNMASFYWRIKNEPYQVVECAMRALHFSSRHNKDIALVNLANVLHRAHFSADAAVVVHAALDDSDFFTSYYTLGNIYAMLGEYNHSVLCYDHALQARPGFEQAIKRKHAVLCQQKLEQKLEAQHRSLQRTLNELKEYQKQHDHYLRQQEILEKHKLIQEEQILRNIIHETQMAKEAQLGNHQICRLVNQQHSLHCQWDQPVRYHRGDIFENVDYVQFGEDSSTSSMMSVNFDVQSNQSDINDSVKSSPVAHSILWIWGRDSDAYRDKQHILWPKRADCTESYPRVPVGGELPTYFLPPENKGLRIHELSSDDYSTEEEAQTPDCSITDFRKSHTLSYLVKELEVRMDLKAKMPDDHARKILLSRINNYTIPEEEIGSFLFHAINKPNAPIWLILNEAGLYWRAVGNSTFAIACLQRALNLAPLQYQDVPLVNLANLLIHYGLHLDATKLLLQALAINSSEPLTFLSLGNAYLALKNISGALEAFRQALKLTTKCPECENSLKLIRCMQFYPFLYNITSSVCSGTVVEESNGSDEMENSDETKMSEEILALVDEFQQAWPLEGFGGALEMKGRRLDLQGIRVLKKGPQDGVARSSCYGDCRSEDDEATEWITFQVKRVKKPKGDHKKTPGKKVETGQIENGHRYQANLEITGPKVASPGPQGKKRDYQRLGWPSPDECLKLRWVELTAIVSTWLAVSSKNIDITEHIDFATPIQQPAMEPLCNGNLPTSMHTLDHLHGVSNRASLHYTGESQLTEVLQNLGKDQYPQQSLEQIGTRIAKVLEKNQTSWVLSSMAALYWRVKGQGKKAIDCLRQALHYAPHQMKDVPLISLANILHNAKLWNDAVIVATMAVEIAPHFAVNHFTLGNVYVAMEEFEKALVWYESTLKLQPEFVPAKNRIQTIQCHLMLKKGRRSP
# ± gives the standard deviation of the averaged measurements. Only a part is listed here, and it is no random draw. Most entries show no effect beyond the scatter of the controls.
# Compound: Nc1ncnc2c1ncn2[C@@H]1O[C@H](COP(=O)(O)OP(=O)(O)NP(=O)(O)O)[C@@H](O)[C@H]1O [adenylyl imidodiphosphate]
# Test: NP40-soluble protein abundance relative to vehicle (solubility fold change) (ratio); higher = more soluble protein in presence of AMP-PNP
# Method in brief: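 Jurkat crude lysate prepared with a Dounce homogeniser was treated at eight concentrations spanning 0.1 to 10 mM, 10 min at room temperature then 3 min at 37 °C. Solubilisation with 0.8% NP40 and benzonase and ultracentrifugation preceded TMT labelling of the supernatant for LC-MS/MS. Fold change against the detergent-processed vehicle was determined per replicate from vsn-normalised intensities, across three independent experiments.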
Target,NP40-soluble protein abundance (concentration: 0.1mM),NP40-soluble protein abundance (concentration: 0.5mM)
RFK (UniProt Q969G6),0.961 ± 0.031,1.02 ± 0.031
UniProt Q969M3 and related entries,1.0179 ± 0.00036,1.02 ± 0.02
ZFR (UniProt Q96KR1),1.03 ± 0.058,1.03 ± 0.062
UniProt Q96N46 and related entries,1 ± 0.023,0.998 ± 0.023
UniProt Q96GC9,0.9931 ± 0.0015,0.9764 ± 0.0042
YIPF6 (UniProt Q96EC8),1.0231 ± 0.00044,1.01 ± 0.039
CCDC115 (UniProt Q96NT0),1.01 ± 0.046,1.02 ± 0.058
TRMT61A (UniProt Q96FX7),1.03 ± 0.036,1.02 ± 0.052
UniProt Q96MG7,1.01 ± 0.053,0.998 ± 0.073
PINX1 (UniProt Q96BK5),1.06 ± 0.054,1.13 ± 0.12
UniProt Q96HS1 and related entries,1.02 ± 0.052,0.995 ± 0.058
HSPBAP1 (UniProt Q96EW2),1.004 ± 0.0058,1.005 ± 0.0071
UniProt Q969X5 and related entries,1.01 ± 0.071,0.976 ± 0.12
UniProt Q96QF0 and related entries,1.01 ± 0.052,1.02 ± 0.027
SFXN2 (UniProt Q96NB2),0.994 ± 0.03,0.968 ± 0.04
PEX13 (UniProt Q92968),1.01 ± 0.12,0.961 ± 0.15
UniProt Q969U7 and related entries,0.988 ± 0.04,0.983 ± 0.033
UniProt Q96AT9 and related entries,1 ± 0.045,1.05 ± 0.066
UniProt Q96Q15 and related entries,0.984 ± 0.045,0.969 ± 0.064
UniProt Q96DB5,1.03 ± 0.014,1.007 ± 0.0078
LENG1 (UniProt Q96BZ8),0.9875 ± 0.0039,1.02 ± 0.019
ANKRD27 (UniProt Q96NW4),0.994 ± 0.0084,1 ± 0.014
AIDA (UniProt Q96BJ3),0.946 ± 0.039,1.03 ± 0.022
RNF31 (UniProt Q96EP0),0.9915 ± 0.0089,0.948 ± 0.011

# A portion from the list above, as a working copy:
Target,NP40-soluble protein abundance (concentration: 0.1mM),NP40-soluble protein abundance (concentration: 0.5mM)
RFK (UniProt Q969G6),0.961 ± 0.031,1.02 ± 0.031
UniProt Q969M3 and related entries,1.0179 ± 0.00036,1.02 ± 0.02

# Following part

Target,NP40-soluble protein abundance (concentration: 0.1mM),NP40-soluble protein abundance (concentration: 0.5mM)
UniProt Q96KG9 and related entries,0.996 ± 0.037,0.98 ± 0.04
TOE1 (UniProt Q96GM8),1.03 ± 0.021,1.07 ± 0.083
PRRC1 (UniProt Q96M27),1.04 ± 0.069,1 ± 0.012
CCDC97 (UniProt Q96F63),1.03 ± 0.098,1.02 ± 0.042
UniProt Q96AJ9 and related entries,0.988 ± 0.025,0.999 ± 0.045
ATG4C (UniProt Q96DT6),1.01 ± 0.045,0.999 ± 0.011
TBRG4 (UniProt Q969Z0),0.978 ± 0.018,1.01 ± 0.018
UniProt Q92974 and related entries,1.03 ± 0.017,0.996 ± 0.023
UniProt Q96DC7 and related entries,1.02 ± 0.032,0.989 ± 0.019
UniProt Q96DI7 and related entries,1 ± 0.036,1.01 ± 0.023
EXOC4 (UniProt Q96A65),1.01 ± 0.03,1.01 ± 0.061
UniProt Q96D53,1.019 ± 0.0012,0.974 ± 0.022
UniProt Q96DF8,0.982 ± 0.01,0.969 ± 0.054
CCDC124 (UniProt Q96CT7),1.03 ± 0.026,1.07 ± 0.043
DPH3 (UniProt Q96FX2),1.02 ± 0.045,1 ± 0.029
CCDC43 (UniProt Q96MW1),0.972 ± 0.048,0.972 ± 0.06
UniProt Q96BN2,1.02 ± 0.021,1.03 ± 0.034
ATXN7L3B (UniProt Q96GX2),1.01 ± 0.03,1.02 ± 0.041
GTF3C6 (UniProt Q969F1),1.01 ± 0.055,1.03 ± 0.053
UniProt Q96AE7 and related entries,1.01 ± 0.028,0.979 ± 0.029
UniProt Q96EH3,1 ± 0.039,1.03 ± 0.028
RAB24 (UniProt Q969Q5),1.01 ± 0.03,1 ± 0.013
UniProt Q96GS4,0.9812 ± 0.0083,1 ± 0.015
